Reference: article PMC4007406

Key:
[1] = target: T1, Sec13 (zebrafish (endogenous in inner ear hair cells)) (UniProt Q7T2E1); assay: proximity ligation; Duo-Link proximity ligation assay on fixed whole-mount zebrafish larvae at 5 dpf, wild-type siblings, anterior macula hair cells; pairs of primary antibodies at 1:500 (tubulin antibodies 1:100)
T1 sequence: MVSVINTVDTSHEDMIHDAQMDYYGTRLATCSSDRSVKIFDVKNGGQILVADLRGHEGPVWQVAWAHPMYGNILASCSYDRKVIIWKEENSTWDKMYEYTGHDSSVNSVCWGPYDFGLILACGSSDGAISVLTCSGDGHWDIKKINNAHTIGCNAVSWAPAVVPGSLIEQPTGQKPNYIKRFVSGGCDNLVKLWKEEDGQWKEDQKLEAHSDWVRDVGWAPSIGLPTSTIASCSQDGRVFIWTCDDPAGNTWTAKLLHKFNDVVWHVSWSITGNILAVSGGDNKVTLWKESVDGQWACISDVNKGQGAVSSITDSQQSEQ

[2] = target: T1, Sec13 (zebrafish (endogenous in inner ear hair cells)); assay: proximity ligation; Duo-Link proximity ligation assay on fixed whole-mount larvae at 5 dpf, homozygous cdh23^tj264a mutants, anterior macula hair cells

- binding [1]: binds
Substance: Ift88
- binding [2]: no binding (only in cdh23^tj264a mutants)

No constants are given. Whether binding was seen depends on the method and setting. Binding seen in cells or lysates may run through a third protein. For some assays here: A result given as binding can be weak or reduced; the word gives no strength.
